In publication PMC9976908:
These are yes or no findings as the source states them, for the method shown. Some binding calls cover weakened binding; strength is not graded here.

Target: T1, C. elegans Drosha (C. elegans) (UniProt O01326)
T1 sequence: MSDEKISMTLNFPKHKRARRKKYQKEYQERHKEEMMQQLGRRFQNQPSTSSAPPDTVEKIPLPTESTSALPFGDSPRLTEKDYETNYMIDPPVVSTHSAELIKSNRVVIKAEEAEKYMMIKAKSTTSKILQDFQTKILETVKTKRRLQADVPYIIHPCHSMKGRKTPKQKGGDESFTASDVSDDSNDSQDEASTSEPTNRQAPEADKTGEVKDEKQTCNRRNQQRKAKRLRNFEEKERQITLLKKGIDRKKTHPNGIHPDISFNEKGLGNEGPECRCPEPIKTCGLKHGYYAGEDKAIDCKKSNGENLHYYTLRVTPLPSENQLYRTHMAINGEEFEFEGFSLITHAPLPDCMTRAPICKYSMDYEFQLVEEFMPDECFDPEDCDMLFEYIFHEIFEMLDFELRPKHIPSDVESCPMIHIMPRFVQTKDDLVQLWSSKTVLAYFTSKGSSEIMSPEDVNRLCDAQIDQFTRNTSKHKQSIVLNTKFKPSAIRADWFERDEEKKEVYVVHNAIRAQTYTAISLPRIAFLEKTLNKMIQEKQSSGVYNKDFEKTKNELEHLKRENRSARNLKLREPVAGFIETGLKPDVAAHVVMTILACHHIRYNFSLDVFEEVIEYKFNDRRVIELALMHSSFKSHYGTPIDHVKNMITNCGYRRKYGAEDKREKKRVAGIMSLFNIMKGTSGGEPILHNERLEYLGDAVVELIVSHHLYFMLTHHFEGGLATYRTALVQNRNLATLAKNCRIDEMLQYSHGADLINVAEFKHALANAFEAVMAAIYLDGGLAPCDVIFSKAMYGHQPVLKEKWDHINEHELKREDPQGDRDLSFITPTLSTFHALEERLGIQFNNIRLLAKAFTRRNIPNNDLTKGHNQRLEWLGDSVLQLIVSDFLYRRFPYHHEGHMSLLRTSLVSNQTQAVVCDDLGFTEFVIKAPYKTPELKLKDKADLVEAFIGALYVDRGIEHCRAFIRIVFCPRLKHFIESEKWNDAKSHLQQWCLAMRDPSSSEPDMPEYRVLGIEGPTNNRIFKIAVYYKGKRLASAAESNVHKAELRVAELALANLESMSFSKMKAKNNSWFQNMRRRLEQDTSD
Experiment: co-purification of a recombinant complex; the two proteins were purified together as one complex for cleavage assays; purification as previously described (refs 35, 28, 36); no details given here

binding: binds
B1: human DGCR8 (protein, UniProt Q8WYQ5 1-773)
chain: METDESPSPLPCGPAGEAVMESRARPFQALPREQSPPPPLQTSSGAEVMDVGSGGDGQSELPAEDPFNFYGASLLSKGSFSKGRLLIDPNCSGHSPRTARHAPAVRKFSPDLKLLKDVKISVSFTESCRSKDRKVLYTGAERDVRAECGLLLSPVSGDVHACPFGGSVGDGVGIGGESADKKDEENELDQEKRVEYAVLDELEDFTDNLELDEEGAGGFTAKAIVQRDRVDEEALNFPYEDDFDNDVDALLEEGLCAPKKRRTEEKYGGDSDHPSDGETSVQPMMTKIKTVLKSRGRPPTEPLPDGWIMTFHNSGVPVYLHRESRVVTWSRPYFLGTGSIRKHDPPLSSIPCLHYKKMKDNEEREQSSDLTPSGDVSPVKPLSRSAELEFPLDEPDSMGADPGPPDEKDPLGAEAAPGALGQVKAKVEVCKDESVDLEEFRSYLEKRFDFEQVTVKKFRTWAERRQFNREMKRKQAESERPILPANQKLITLSVQDAPTKKEFVINPNGKSEVCILHEYMQRVLKVRPVYNFFECENPSEPFGASVTIDGVTYGSGTASSKKLAKNKAARATLEILIPDFVKQTSEEKPKDSEELEYFNHISIEDSRVYELTSKAGLLSPYQILHECLKRNHGMGDTSIKFEVVPGKNQKSEYVMACGKHTVRGWCKNKRVGKQLASQKILQLLHPHVKNWGSLLRMYGRESSKMVKQETSDKSVIELQQYAKKNKPNLHILSKLQEEMKRLAEEREETRKKPKMSIVASAQPGGEPLCTVDV
